Source: the supplement of paper PMC7877785
± gives the uncertainty stated by the source. The uncertainty is large for many entries.

Assay: self-splicing fitness, log relative to wild type (ln ratio); higher = more splicing; Tetrahymena group I intron in knt gene, E. coli kanamycin selection, DiMSum; sequences stand for … in CUCUCU…GGAGGGAAAAGUUAUCAGGCAUGCACCUGGUAGCUAGUCUUUAAACCAAUAGAUUGCAUCGGUUUAAAAGGCAAGACCGUCAAAUUGCGGGAAAGGGGUCAACAGCCGUUCAGUACCAAGUCUCAGGGGAAACUUUGAGAUGGCCUUGCAAAGGGUAUGGUAAUAAGCUGACGGACAUGGUCCUAACCACGCAGCCAAGUCCUAAGUCAACAGAUCUUCUGUUGAUAUGGAUGCAGUUCACAGACUAAAUGUCGGUCGGGGAAGAUGUAUUCUUCUCAUAAGAUAUAGUCGGACCUCUCCUUAAUGGGAGCUAGCGGAUGAAGUGAUGCAACACUGGAGCCGCUGGGAACUAAUUUGUAUGCGAAAGUAUAUUGAUUAGUUUUGGAGUACUCGUGGUCG
Outline: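 Pooled colonies went to amplicon sequencing on an Illumina HiSeq 2500 after six replicate transformations. The plates were LB agar with 100 μg/mL carbenicillin, 50 μM IPTG and 0.2% rhamnose, with or without 25 μg/mL kanamycin, incubated overnight at 37°C or 30°C. The E. coli BL21(DE3) library had all eight P1ex-region intron nucleotides randomised, the intron placed in the knt kanamycin-resistance gene on pET-22b(+). DiMSum fitness is the error-weighted combination of replicate fold changes, kanamycin against none, normalised to wild type.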

Sequence | self-splicing fitness (ln) (30 °C) | self-splicing fitness (ln) (37 °C)
GGAGAGCAAUAUUACGGAGU | -4.72 ± 0.59 | 
UCAUAGCAAUAUUACGCGGC |  | -2.05 ± 0.85
UACGAGCAAUAUUACGGCAC | -3.06 ± 0.76 | 
GUAGAGCAAUAUUACGCCGA | -1.1 ± 0.65 | -1.39 ± 0.62
CCUGAGCAAUAUUACGCAGU | -2.91 ± 0.2 | -2.84 ± 0.28
AAGGAGCAAUAUUACGAUGC | -3.87 ± 0.52 | -2.27 ± 0.63
UUUGAGCAAUAUUACGAGCG | -3.88 ± 1.1 | 
GUCGAGCAAUAUUACGCAGC | -1.65 ± 0.67 | -0.681 ± 1.4
UGCAAGCAAUAUUACGCUCA | -0.11 ± 0.16 | 0.138 ± 0.2
CACGAGCAAUAUUACGAAGC | -2.56 ± 0.58 | 
CCGUAGCAAUAUUACGCUAU | -4.08 ± 1 | -3.33 ± 1
UCUAAGCAAUAUUACGCCUA | -4.34 ± 0.59 | 
GGAUAGCAAUAUUACGCCGG | -4 ± 1 | 
GGGGAGCAAUAUUACGAGAU | -3.48 ± 0.63 | -1.65 ± 0.51
ACCGAGCAAUAUUACGAGAA | -2.51 ± 0.53 | 
CGCCAGCAAUAUUACGGGGG | -3 ± 0.16 | -2.17 ± 0.2
UCCGAGCAAUAUUACGCCAC |  | -2.49 ± 0.63
AUAAAGCAAUAUUACGCCAC |  | -1.75 ± 0.52
GUUUAGCAAUAUUACGAUGG | -1.77 ± 0.5 | -2.32 ± 0.77
CCAGAGCAAUAUUACGCUGU |  | -3.91 ± 0.51
AGAGAGCAAUAUUACGGGGC | -1.74 ± 0.55 | -1.39 ± 1.2
AUCUAGCAAUAUUACGGGAA | -0.643 ± 0.13 | -0.903 ± 0.14
UACUAGCAAUAUUACGCAAG | -2.98 ± 0.33 | -1.72 ± 0.24
AGUGAGCAAUAUUACGGAGG | -3.77 ± 0.28 | -2.67 ± 0.27
UCAGAGCAAUAUUACGGAUC | -3.79 ± 0.73 | 
UGGGAGCAAUAUUACGUAAU | -4.4 ± 1 | -1.4 ± 0.54
UGCGAGCAAUAUUACGUUAC | -3.08 ± 0.64 | -2.33 ± 0.54

Sequence | self-splicing fitness (ln) (30 °C) | self-splicing fitness (ln) (37 °C)
GAGGAGCAAUAUUACGCUUU | -4.66 ± 1 | -2.06 ± 0.41
GGAGAGCAAUAUUACGCAAU | -3.02 ± 0.2 | -2.55 ± 0.31
GUCGAGCAAUAUUACGUCGC | -1.55 ± 0.83 | -1.05 ± 0.53
CACAAGCAAUAUUACGCAUG | -3.79 ± 0.18 | -2.52 ± 0.13
CAAUAGCAAUAUUACGCGGA | -3.59 ± 0.35 | -2.05 ± 0.16
GCGGAGCAAUAUUACGCGGC |  | -0.829 ± 0.68
AUUCAGCAAUAUUACGCCAC | -3.88 ± 0.52 | 
UAAGAGCAAUAUUACGUGGA | -2.84 ± 0.28 | -2.14 ± 0.3
CGGAAGCAAUAUUACGUAAC | -5.76 ± 1 | 
CGGUAGCAAUAUUACGGGCG | -0.838 ± 0.12 | 0.0595 ± 0.14
CGAAAGCAAUAUUACGAGGU | -4.7 ± 0.58 | 
UGGGAGCAAUAUUACGUUAC |  | -2.74 ± 0.55
AUUGAGCAAUAUUACGGACA |  | -2.92 ± 0.53
UUUGAGCAAUAUUACGUACU |  | -1.95 ± 0.59
CUCUAGCAAUAUUACGACGU | -4.49 ± 0.6 | 
UCUUAGCAAUAUUACGCGAA | -2.63 ± 0.5 | -1.19 ± 0.3
GGGUAGCAAUAUUACGCCCA | -1.52 ± 0.9 | -1.65 ± 0.6
GUCAAGCAAUAUUACGCGUU | -2.07 ± 0.076 | -0.761 ± 0.097
CAACAGCAAUAUUACGUGGA | -3.08 ± 0.13 | -2.08 ± 0.096
AUCCAGCAAUAUUACGACCA | -0.725 ± 0.15 | -0.224 ± 0.17
GAAGAGCAAUAUUACGGAGC | -3.39 ± 1 | 
CCGGAGCAAUAUUACGAUAA | -2.5 ± 0.63 | -2.09 ± 0.56
UUCCAGCAAUAUUACGAUAC | -4.01 ± 0.74 | -2.03 ± 1.1
GGGGAGCAAUAUUACGUCUC |  | -1.82 ± 0.54
GUGGAGCAAUAUUACGGAGA |  | -2.35 ± 0.76
CUUCAGCAAUAUUACGAUCA | -3.23 ± 0.53 | 
GGCAAGCAAUAUUACGACCC | -3.48 ± 1.1 | -0.168 ± 0.66

4 records drawn at random from the list so far:
Sequence | self-splicing fitness (ln) (30 °C) | self-splicing fitness (ln) (37 °C)
GGGUAGCAAUAUUACGCCCA | -1.52 ± 0.9 | -1.65 ± 0.6
UAAGAGCAAUAUUACGUGGA | -2.84 ± 0.28 | -2.14 ± 0.3
CUCUAGCAAUAUUACGACGU | -4.49 ± 0.6 | 
GCGGAGCAAUAUUACGCGGC |  | -0.829 ± 0.68
